Experimental data taken from patent publication US10584127B2, “3,3-difluoropiperidine carbamate heterocyclic compounds as NR2B NMDA receptor antagonists” (Rugen Holdings (Cayman) Limited, priority 2015, dated 2020).
At least one structure is not confirmed: it was looked up by name or label, or the drawing left a doubt.

Tested on: KCl-induced cortical spreading depression
Experiment: Cortical spreading depression (CSD), aura phase of migraine model
Format: in vivo
Conditions: rats, 1.25 mg/kg
Protocol: The cortical spreading depression model is utilized to investigate whether treatment with compounds of the present invention affect electrophysiological and hemodynamic events in a rat model of migraine.
Rats were anesthetized with 5% isoflurane (in 70% N2O and 30% O2; flow 300 ml/min) and placed in a stereotactic frame. […] The rectal temperature was maintained at 37.0±1.0° C. with a homeothermic blanket system. The skin was opened by a medial incision and retracted laterally. Three burr holes were drilled under saline cooling over the right hemisphere at the following coordinates (mm from bregma): (1) posterior 4.5, lateral, 2.0 (occipital cortex): KCl application site; (2) posterior 0.5, lateral 2.0 (parietal cortex): LDF recording site; (3) anterior 2, lateral 2 (frontal cortex): DC potential recording site. A laser-Doppler flow probe (Oxyflow, Oxford Optronics, UK) to monitor CBF and an invasive Ag/AgCl electrode for measuring direct current (DC) potential shifts were placed in the parietal and frontal cortex burr holes on the intact dura and in the cortex, respectively. The laser-Doppler flow probe was positioned in an area free of large pial and dural vessels to minimize a large-vessel contribution to the signal. For the DC-potential measurement, a reference electrode was fixed in the neck. Dura overlying the occipital cortex was gently removed and care was taken to avoid bleeding. After surgical preparation, the cortex was allowed to recover for 15 minutes under saline irrigation. […] The number of KCl-induced CSDs was counted for 2 hours. The CBF and DC-potentials were monitored continuously starting from 5 minutes before KCl exposure. […]
The data was collected in Windaq acquisition software (Dataq Instruments, USA) at 20 kHz. The raw data was analyzed in Clampfit program (Axon Instruments, USA). […] The following parameters were analyzed: i) the number, duration and amplitude of DC-potentials, and ii) the number and amplitude of CBF events.
Doses were given as milligram per kilogram (mpk). […] Differences between groups were analyzed by using 1-way ANOVA and Dunnett's post hoc test.

CC12Cc3ccccc3C(N1)c1ccccc12 (stereo not drawn) [MK-801, reference compound]
amplitude of DC potentials vs vehicle: not statistically different | duration of DC potentials vs vehicle: increased | number of CBF events vs vehicle: decreased
